Laboratory results published in US20160046678A1 (ZYNGENIA, published 2016).
Results are given in words; binding and its absence hold for the method and conditions named. Some binding calls cover weakened binding; strength is not graded here.

Target: EGFR (UniProt P00533)
Experiment: peptide screen, Example 48

| Binder | binding |
| --- | --- |
| YSEHCWLFPTDWICTLVP [EGA921] | binds |
| YAEHCWQFPTDWICTLLP [EGA914] | binds |
| YAQHCWMFPADWICTLMT [EGA966] | binds |
| YADHCWLFPNDWICTLIK [EGA949] | binds |
| YAEHCWLFPTDWICSLMT [EGA916] | binds |
| YDEHCRQFPTDWICKLTT [EGA935] | binds |
| YAEHCWQFPTDWICTLMS [EGA918] | binds |
| YAEHCRQFPTDWICGLMT [EGA919] | binds |
| YEKHCYQFPSDWICSLKT [EGA978] | binds |
| YAGHCSRFPTDWICTLMA [EGA937] | binds |
| YADHCAHFPTDWICTLMT [EGA962] | binds |
| YAVHCWQFPADWICSLEM [EGA959] | binds |
| YSEHCWLFPSDWICSLDT [EGA934] | binds |
| YAEHCWLFPSDWICTLMP [EGA924] | binds |
| YAEHCWRFPTDWICTLMT [EGA946] | binds |
| YAGHCNLFPTDWICTLKT [EGA940] | binds |
| YARHCMQFPTDWICSLTT [EGA911] | binds |

| Binder | binding |
| --- | --- |
| YTSHCRHFPNDWICTLLP [EGA947] | binds |
| YAEHCWHFPSDWICTLKE [EGA973] | binds |
| YAEHCWMFPTDWICSLLP [EGA944] | binds |
| YEQHCWHFPNDWICTLMT [EGA929] | binds |
| YVEHCYQFPADWICTLKT [EGA955] | binds |
| YAEHCWQFPADWICSLPS [EGA964] | binds |
| YAEHCRQFPTDWICSLMT [EGA975] | binds |
| YAEHCYRFPTDWICTLMS [EGA936] | binds |
| YEEHCGLFPTDWICTLMD [EGA941] | binds |
| LPDGCWWSTWGRECLLVP [EGA982] | binds |
| YAEHCGMFPNDWICSLTK [EGA961] | binds |
| YAEHCYMFPTDWICTLTA [EGA925] | binds |
| YEEHCQLFPTDWICTIRT [EGA915] | binds |
| YLAHCWHFPNDWICSLLP [EGA967] | binds |
| YEDHCSLFPKDWICGLMP [EGA913] | binds |
| LTDGCYWTIWGRECLLLP [EGA981] | binds |
| YADHCSQFPTDWICTLIP [EGA920] | binds |

Next, values leading:

| binding | Binder |
| --- | --- |
| binds | YIEHCWQFPTDWICTLMT [EGA907] |
| binds | YAEHCWQFPTDWICTLRS [EGA912] |
| binds | YAEHCRHFPSDWICTLTK [EGA956] |
| binds | YAEHCWQFPTDWICSLLD [EGA965] |
| binds | YYEHCTLFPSDWICTLMT [EGA931] |
| binds | YSEHCWLFPTDWICHLMP [EGA969] |
| binds | YADHCRFFPTDWICTLMP [EGA908] |
| binds | YEEHCWQFPADWICTLLT [EGA972] |
| binds | LPEGCYWAIWGKECLLPL [EGA984] |
| binds | YGEHCWQFPTDWICTLVT [EGA933] |
| binds | YAEHCWQFPTDWICSLMT [EGA971] |
| binds | YAEHCRLFPADWICSLMT [EGA952] |
| binds | YAQHCMQFPTDWICTLMT [EGA909] |
| binds | YAEHCWLFPTDWICNLIP [EGA977] |
| binds | YEEHCWLFPSDWICTLMP [EGA976] |
| binds | YADHCWQFPSDWICTLLA [EGA910] |
| binds | YPEHCWLFPTDWICTLVA [EGA963] |
| binds | YTEHCWLFPTDWICSLMP [EGA927] |

| binding | Binder |
| --- | --- |
| binds | IPDDCYWTVWGRECLLVP [EGA980] |
| binds | YEEHCLQFPADWICTLLP [EGA960] |
| binds | YTKHCQRLPTYKICNLFM [EGA968] |
| binds | YAAHCWQFPTDWICTLIP [EGA922] |
| binds | YAEHCWLFPTDWICTLMT [EGA930] |
| binds | YAMHCSQFPSDWICTLMT [EGA974] |
| binds | YDEHCLKFPADWICSLPR [EGA939] |
| binds | YAEHCGLFPTDWICTLMT [EGA953] |
| binds | YAQHCWQFPADWICTLIE [EGA938] |
| binds | FQGHCALFPTDWICTLKS [EGA951] |
| binds | YAEHCWQFPHDWICTLTK [EGA948] |
| binds | YAEHCWLFPTDWICTLRT [EGA950] |
| binds | YAEHCSQFPTDWICSLLT [EGA957] |
| binds | YSEHCWLFPTDWICTLPT [EGA942] |
| binds | YEEHCALFPTDWICTLH [EGA932] |
| binds | YREHCGQFPNDWICSLLT [EGA954] |
| binds | YAEHCYNFPSDWICSLLT [EGA970] |
| binds | YAEHCWQFPSDWICTLLP [EGA945] |
